# Library screening results

Mtb growth Cornell: 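Whole-cell assay for inhibitors of Mycobacterium tuberculosis growth, labelled Cornell in the record; the read-out is not stated. The concentration is filed as 10 mM, unlikely as a test dose, so the dose is not known. The record gives no direction; compounds strong in two other growth screens of this library score well above the rest, so higher reads as stronger inhibition. Of about 53,000 compounds tested this way, about 900 (1.7%) reached 50% or more in at least one test.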
Mtb heat-shock: 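Assay on Mycobacterium tuberculosis, filed only as a heat shock assay from Cornell; the read-out is not stated. The concentration is filed as 10 mM, unlikely as a test dose, so the dose is not known. Direction is inferred from retests: higher values go with stronger inhibition. Of about 69,000 compounds tested this way, about 930 (1.4%) reached 50% or more in at least one test.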

Values are the deposited “Percent Effect”, in %.
The controls that fix the scale are not given in the record; negative values are as filed.
Compounds were drawn at random from those tested, without regard to their results.
A dash means the value is not listed here; it may have been measured.

Compound | Mtb growth Cornell | Mtb heat-shock
O=C(NCCCO)c1nc(-c2ccc3cc[nH]c3c2)no1 | 7.483 | 3.311
COCCOCC(=O)N(Cc1cccc(C)c1)C(C)C | - | -23.48
O=C(CNc1ccccc1Cl)Nc1cc(-n2cnnn2)ccc1F | 22.69 | -3.454
COCc1noc(Cn2ccc3ccccc3c2=O)n1 | 2.625 | -2.806
CC(C)CN1CC(O)CN(S(=O)(=O)c2ccccc2)CC1=O (stereo unspecified) | -6.093 | 34.18
Cc1nc(O)cc(C2CCN(C(=O)C(C)Cn3nc(C)nc3C)CC2)n1 (stereo unspecified) | -26.29 | -30.58
CN(CC(=O)NCCc1cc2ccccc2o1)S(C)(=O)=O | - | -33.9
O=c1n(CC2CCCCO2)nc(CC2CCNCC2)n1-c1ccccc1 (stereo unspecified) | -1.218 | 18.94
COc1ccnc(N2CCN(CC(O)CN3CCOCC3)CC2)n1 (stereo unspecified) | -6.68 | -10.4
CNS(=O)(=O)CC1CCCN1C(=O)c1ccc2cc[nH]c2c1 (stereo unspecified) | -6.44 | 17.24
O=C(O)C(F)(F)F.O=C(O)C(F)(F)F.[H][C@@]12COC[C@]1([H])[C@H](OCc1ccccn1)CN2Cc1ccc(F)cc1 | -0.6078 | 25.12
Cn1cc(CN2CCC3(CCCN(C(=O)c4cscn4)C3)C2)cn1 (stereo unspecified) | 8.439 | -5.56
O=C(O)C(F)(F)F.c1coc(CN2CCC3(CCOCC3COCC3CC3)CC2)c1 (stereo unspecified) | - | -4.667
Cc1nn(C)c(C)c1C1CCCN1C(=O)CCNc1ncccn1 (stereo unspecified) | 21.84 | 4.497
CC(NC(=O)Cn1ccnc1)c1ccc(OCC2CC2)c(F)c1 (stereo unspecified) | 3.637 | -7.524
C[C@@H]1C[C@H](C(F)(F)F)n2nc(C3CCN(S(C)(=O)=O)CC3)cc2N1 | 1.327 | 7.943
O=C(O)C(c1ccc2c(c1)OCCO2)N1CCC(N2CCSCC2)CC1 (stereo unspecified) | 13.93 | 0.9765
O=C(NCCS(=O)(=O)N1CCN(c2ncccn2)CC1)C1CC1 | -28.73 | -5.413
CCc1nnc(C(C)N2CCCN(C(=O)Oc3ccccc3)CC2)o1 (stereo unspecified) | 1.597 | 9.979
COCCn1cc(NCc2cccc3cn[nH]c23)cn1 | -14.07 | 10.97
O=C(O)C(F)(F)F.[H][C@]12CCN(c3ncccn3)[C@@]1([H])CC[C@@H](COCC(=O)N(C)C)O2 | 5.956 | -6.623
COc1cccc(CN(C)C(=O)CCC(=O)c2ccc(Cl)cc2)c1OC | 54.4 | -8.155
Cc1cc(C(=O)N2CCCC(c3nncn3C)C2)no1 (stereo unspecified) | -53.27 | 27.19
COc1ccc2cc(NC(=O)CCNc3nc(C)cc(C)n3)cnc2c1 | 37.7 | -2.955
Cc1nc2ccccc2nc1CN1CCCCC1Cn1cncn1 (stereo unspecified) | -13.48 | 12.5
CCN(Cc1cc(=O)n2cc(Br)ccc2n1)C1CC1 | -10.27 | -9.27
COc1cc(CN[C@@H]2COC[C@H]2Cc2cc(C)no2)cc(OC)c1.O=C(O)CC(O)(CC(=O)O)C(=O)O | -10.13 | -26.58
COc1c(C2CCCN2C(=O)c2cccc(C(N)=O)c2)c(C)nn1C (stereo unspecified) | - | -2.076
CC(=O)N1CCC(Cc2cnc(C(=O)N3CCCC3)cn2)C1 (stereo unspecified) | -28.62 | -6.885
O=C1NCCN1C1CCN(Cc2coc(-c3ccccc3)n2)CC1 | -17.37 | -24.66
CC(C)Cc1nc(C[S+]([O-])CC(=O)NCc2ccccc2)no1 (stereo unspecified) | 31.83 | -13.78
Cn1nnc2c1CCN(Cc1ccccn1)C2COCc1ccccc1.O=C(O)C(F)(F)F.O=C(O)C(F)(F)F (stereo unspecified) | -27.09 | -14.56
CCn1ncnc1CN1CCC(CNC(=O)c2cccc(C)c2)C1 (stereo unspecified) | 21.28 | 20.57
Cc1noc(C)c1CS(=O)(=O)C(C)C(=O)N(C)c1ccccc1 (stereo unspecified) | 22.18 | -2.481
Cc1cc(C(F)(F)F)c2c(C3CCN(S(=O)(=O)N(C)C)CC3)noc2n1 | 7.687 | -3.308
Cn1ccnc1CN1CCN(Cc2noc(-c3ccccc3)n2)CC1 | - | -11.44
COc1ccc2c(C(=O)N(C)C)cc(-c3cnc(N)nc3)nc2c1 | 4.125 | 6.477
CCN(C(=O)Cc1ccc(NCc2nccn2C)cc1)c1ccccc1 | 9.386 | 6.341
CCCS(=O)(=O)N1C[C@@H](c2ccccc2)[C@@]2(CCNC2=O)C1 | -13.11 | 29.42
O=C(NCc1ccco1)c1[nH]nc2c1CS(=O)(=O)CC2 | - | -14.36
Cc1cccc(C2(CNC(C)c3nnc(C)o3)CCCC2)c1 (stereo unspecified) | - | -18.94
[H][C@@]12CS(=O)(=O)C[C@]1([H])N(Cc1ccc(C#N)cc1)CCN2C(=O)C1CCC1 | 4.039 | -0.3879

Source: ChEMBL document CHEMBL3988442, “University of Dundee, Small-Polar-MMV Screening Library” (2021).